# According to PubChem BioAssay (NCATS):
# This list was built around the results that the source calls inconclusive (neither active nor inactive); the mix of calls is not that of the screen. Where the call is inconclusive, the potency comes from a doubtful curve fit. Active and inactive are the calls of the source. The call rests on the fitted dose curve; in most records, active means well fitted activation curve with a large enough effect; inconclusive means small, poorly fitted or top-dose-only effect, or another doubt; inactive means no such curve, though single readings can be large or run the other way.
# Molecular target: Rap guanine nucleotide exchange factor 3 (Homo sapiens) (UniProt O95398)
# Assay: Counterscreen qHTS for agonist of cAMP-regulated guanine nucleotide exchange factor 3 (EPAC1) (AID 1645889); further: nearly all actives have a fitted effect of over 40% in size
# Settings: EPAC1 Rap1B-BODIPY-GDP exchange, fluorescence; series mostly up to 154 µM
# Outline: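 Measured: fluorescence of BODIPY-GDP bound to Rap1B, which falls as exchange proceeds. Conditions include 50 uM competing GDP, 5 and 30 min reads, and a later cAMP challenge for antagonist detection.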
# Potency means the concentration at half of the fitted maximal effect.
row,Compound,Potency
1,O=C(O)c1ccccc1-c1ccc(/C=C/c2cc(C(F)(F)F)[nH]c(=O)n2)o1,"inconclusive: 17.8 µM [activator, single point]"
2,CCN(CC)c1ccc(/C=C(\C#N)C(=O)c2ccc(Br)cc2)cc1,"inconclusive: 2.82 µM [activator, full curve, poor fit]"
3,CN1C(=O)c2cccc3c(N)ccc(c23)C1=O,active: 10 µM
4,Cc1nc(C)c(-c2csc(Nc3ccc(C(=O)O)c(O)c3)n2)s1,"inconclusive: 0.158 µM [activator, full curve, poor fit]"
5,O=C(NC1CCCC1)c1cccc2c1C(=O)c1ccc(N3CCCCC3)cc1S2(=O)=O,inactive
6,Cc1cc(/C=C2\SC(=S)N(Cc3ccco3)C2=O)c(C)n1-c1cccnc1,"inconclusive: 0.0398 µM [activator, full curve, poor fit]"
7,Cc1cc2nc3c(=O)n(C4CCCCC4)c(=O)[nH]c3nc2cc1N,active: 25.1 µM
8,CCCCCCn1c(=O)[nH]c2nc3cc(N)c(C)cc3nc2c1=O,"inconclusive: 8.91 µM [activator, full curve]"
9,CC(=O)Nc1ccc(N2C(=O)c3cccc4c(O)ccc(c34)C2=O)cc1,active: 39.8 µM
10,Cc1c(CCC(=O)O)c(=O)oc2c(C)c3occ(-c4ccc(Br)cc4)c3cc12,inactive
11,CCOc1ccc(S(=O)(=O)Nc2cc(NS(=O)(=O)c3ccc(OCC)cc3)cc(C(=O)O)c2)cc1,inactive
12,CC1(C(=O)NS(=O)(=O)c2ccc(Cl)s2)CCN1C(=O)C1(c2ccc(Cl)cc2)CCC1 (centres undefined),inactive
13,Cc1ccc(N=Cc2c(O)n(-c3nccs3)c(=O)c3ccccc23)c(C)c1,"inconclusive: 5.01 µM [activator, partial curve]"
14,CN1/C(=C\C=C2/SC(=S)NC2=O)C(C)(C)c2ccccc21,active: 70.8 µM
15,O/C=c1\ccc2cccc3nc(C(F)(F)F)nc1c23,active: 39.8 µM
16,COc1cccc(/C=N/NC(=O)c2[nH]nc3c2CCc2ccccc2-3)c1O,"inconclusive: 2 µM [activator, full curve, poor fit]"
17,O=C(N/N=C/c1ccc(OC(=O)c2ccccc2Cl)cc1)c1cc(O)cc(O)c1,"inconclusive: 11.2 µM [activator, partial curve, poor fit]"
18,Cc1ccc2c(c1)c(/C=C/c1cc[n+](C)cc1)c(C)n2C,active: 8.91 µM
19,CCN(CC)c1ccc(/C=C/C(=O)c2ccc(Br)cc2)cc1,active: 14.1 µM

# Given as tab-separated lines: four of the compounds above
row	Compound	Potency
13	Cc1ccc(N=Cc2c(O)n(-c3nccs3)c(=O)c3ccccc23)c(C)c1	inconclusive: 5.01 µM [activator, partial curve]
14	CN1/C(=C\C=C2/SC(=S)NC2=O)C(C)(C)c2ccccc21	active: 70.8 µM
15	O/C=c1\ccc2cccc3nc(C(F)(F)F)nc1c23	active: 39.8 µM
16	COc1cccc(/C=N/NC(=O)c2[nH]nc3c2CCc2ccccc2-3)c1O	inconclusive: 2 µM [activator, full curve, poor fit]
